# Source: paper PMC2939883
# Sequences of proteins named here, by UniProt entry; tags and fusion partners are left off. A change or cut given only in a name is not applied to a line headed by its entry.
# UniProt F4I456: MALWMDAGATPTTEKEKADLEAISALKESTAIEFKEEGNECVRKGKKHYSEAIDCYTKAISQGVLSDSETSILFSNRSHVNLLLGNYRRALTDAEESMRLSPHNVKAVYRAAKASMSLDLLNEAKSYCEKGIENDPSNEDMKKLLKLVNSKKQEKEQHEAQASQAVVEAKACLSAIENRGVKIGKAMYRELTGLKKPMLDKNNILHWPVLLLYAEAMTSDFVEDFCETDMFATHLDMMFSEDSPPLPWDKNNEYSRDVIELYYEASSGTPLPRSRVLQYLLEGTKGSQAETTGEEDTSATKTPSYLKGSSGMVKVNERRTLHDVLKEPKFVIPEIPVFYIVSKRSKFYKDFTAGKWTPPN
# Molecular target: TPR2-GST (Arabidopsis thaliana) (UniProt F4I456)
# Assay: pull-down; TPR1-CBD on chitin beads or TPR2-GST on Glutathione-Sepharose 4B beads (50 µl) incubated 60 min on ice with 1 µg purified Hsp90 or Hsp90ΔMEEVD in 20 mM HEPES pH 7.5, 20 mM KCl, 1 mM MgCl2, 0.01% NP-40, with no nucleotide, 5 mM ADP or 5 mM ATP; retained Hsp90 detected by immunoblot with R2 anti-Hsp90 antibody; both purified
row,Substance,binding
1,Hsp90ΔMEEVD (GST tag cleaved) (from UniProt P55737 1-694) (domain or fragment),no binding (tested: 1 µg Hsp90ΔMEEVD with 50 µl of beads)
2,purified recombinant AtHsp90-2 (GST tag cleaved) (from UniProt P55737 1-699),binds

# No constants are given. Whether binding was seen depends on the method and setting. Binding can be weak; no strength is given.
